PubChem BioAssay AID652243, Drosophila RNAi Screening Center – 2013
The deposit covers about 24,000 reagents; shown is an unselected part of those with a known target gene and a result. In the full data, 246 (1%) got an active call. 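Plates not normalised; calls are printed but the firefly/Renilla ratio behind them is not deposited; fold cut for lowering reported inconsistently.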 The raw values are shown without normalisation. Reagents against one gene are numbered here. Reagent sequences are not shown. Not stated in the record: the amount of reagent.

Aim: 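Fly genes required for human androgen receptor driven transcription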 (primary screen)
System: Drosophila S2R+ cells
Reagent: long dsRNA against Drosophila genes
Duration: 72 h (48 h, then 24 h hormone)
Conditions: synthetic androgen R1881 at 10 nM for 24 h
Detection: 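Per-well raw luminescence of the androgen-driven firefly reporter and of the Renilla control, two replicates each, without normalisation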
Direction: firefly reporter light: higher = more light from androgen-responsive reporter; Renilla control light: higher = more constitutive control signal (cell number, transfection)
Hit rule: 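Hit when the log firefly-to-Renilla ratio dropped or increased by a fixed fold versus the mean of GFP or LacZ controls across duplicate plates; lowering cut given as 1.5 and as 3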
Meaning of the calls: active = hit: reporter lowered or raised; inactive = no hit

| Target gene | reagent | firefly reporter light, replicate 1 | firefly reporter light, replicate 2 | Renilla control light, replicate 1 | Renilla control light, replicate 2 | activity call |
| --- | --- | --- | --- | --- | --- | --- |
| ckn (caskin) | 1 | 1.13e6 | 1.21e6 | 1.97e6 | 2.12e6 | inactive |
| CG7102 | 1 | 6.41e5 | 7.87e5 | 2.59e6 | 2.31e6 | inactive |
| CG7102 | 2 | 1.27e5 | 1.91e5 | 9.30e5 | 1.11e6 | inactive |
| Fer2LCH (Ferritin 2 light chain homologue) | 1 | 1.79e5 | 1.79e5 | 2.20e6 | 2.85e6 | inactive |
| Fer2LCH (Ferritin 2 light chain homologue) | 2 | 4.50e5 | 3.45e5 | 1.10e6 | 1.01e6 | inactive |
| CG1360 | 1 | 2.64e5 | 2.38e5 | 1.17e6 | 1.56e6 | inactive |
| CG1360 | 2 | 6.43e5 | 6.04e5 | 1.22e6 | 1.22e6 | inactive |
| ebo (ellipsoid body open) | 1 | 75356 | 52356 | 6.57e5 | 4.55e5 | inactive |
| ebo (ellipsoid body open) | 2 | 3.89e5 | 3.26e5 | 1.81e6 | 1.37e6 | inactive |
| CG2321 | 1 | 1.36e5 | 97518 | 8.18e5 | 5.22e5 | inactive |
| spab (space blanket) | 1 | 3.37e5 | 2.27e5 | 2.38e6 | 2.01e6 | inactive |
| Cow | 1 | 5.33e5 | 8.33e5 | 2.08e6 | 3.77e6 | inactive |
| Cow | 2 | 1.23e5 | 1.57e5 | 2.25e6 | 2.36e6 | inactive |
| Cow | 3 | 4.47e5 | 3.89e5 | 1.39e6 | 1.35e6 | inactive |
| Pgant1 (Polypeptide N-Acetylgalactosaminyltransferase 1) | 1 | 85028 | 1.25e5 | 1.98e6 | 1.98e6 | inactive |
| CG33757 | 1 | 1.06e6 | 8.05e5 | 2.38e6 | 1.33e6 | inactive |
| Lcp65Aa | 1 | 1.50e5 | 1.23e5 | 1.87e6 | 1.73e6 | inactive |
| Lcp65Aa | 2 | 2.18e5 | 2.31e5 | 4.84e5 | 8.33e5 | inactive |
| soti (scotti) | 1 | 85148 | 1.20e5 | 7.57e5 | 1.13e6 | inactive |
| soti (scotti) | 2 | 3.76e5 | 3.94e5 | 1.36e6 | 1.41e6 | inactive |
| Ilp2 (Insulin-like peptide 2) | 1 | 1.10e6 | 9.68e5 | 9.22e5 | 1.12e6 | inactive |
| Ilp2 (Insulin-like peptide 2) | 2 | 6.80e5 | 6.24e5 | 1.80e6 | 1.73e6 | inactive |
| CG10339 | 1 | 2.23e5 | 3.02e5 | 1.46e6 | 1.57e6 | inactive |
| yin | 1 | 1.02e5 | 1.26e5 | 1.27e6 | 9.90e5 | inactive |
| yin | 2 | 9.68e5 | 8.87e5 | 1.55e6 | 1.08e6 | inactive |
| yin | 3 | 1.10e6 | 7.21e5 | 2.39e6 | 2.73e6 | inactive |
| Alp9 (Alkaline phosphatase 9) | 1 | 1.03e6 | 8.20e5 | 1.42e6 | 1.13e6 | inactive |
| Alp9 (Alkaline phosphatase 9) | 2 | – | – | – | – | inactive |
| Tsp47F (Tetraspanin 47F) | 1 | 2.35e5 | 99412 | 1.24e6 | 6.98e5 | inactive |
| CG32284 | 1 | 1.42e5 | 1.84e5 | 2.23e5 | 2.46e5 | inactive |
| lncRNA:CR32368 (long non-coding RNA:CR32368) | 1 | 2.28e5 | 2.04e5 | 6.17e5 | 7.15e5 | inactive |
| lncRNA:CR32368 (long non-coding RNA:CR32368) | 2 | 5.74e5 | 6.56e5 | 9.46e5 | 1.08e6 | inactive |
| mri (mrityu) | 1 | 4.22e5 | 5.85e5 | 7.86e5 | 8.42e5 | inactive |
| mri (mrityu) | 2 | 1.67e5 | 1.63e5 | 3.88e5 | 5.55e5 | inactive |
| CG30273 | 1 | 3.54e5 | 4.49e5 | 1.55e6 | 1.32e6 | inactive |
| CG30273 | 2 | 4.30e5 | 8.01e5 | 8.27e5 | 1.06e6 | inactive |
| Hk (Hyperkinetic) | 1 | 3.57e5 | 8.32e5 | 3.80e5 | 7.68e5 | inactive |
| Hk (Hyperkinetic) | 2 | 6.00e5 | 3.88e5 | 6.03e5 | 4.68e5 | inactive |
| Hk (Hyperkinetic) | 3 | 7.40e5 | 8.72e5 | 1.53e6 | 1.67e6 | inactive |
| ogre (optic ganglion reduced) | 1 | 1.74e5 | 1.72e5 | 9.79e5 | 8.81e5 | inactive |
| ogre (optic ganglion reduced) | 2 | 4.32e5 | 3.98e5 | 5.10e5 | 3.54e5 | inactive |
| boss (bride of sevenless) | 1 | 1.13e5 | 1.14e5 | 2.01e6 | 1.87e6 | inactive |
| boss (bride of sevenless) | 2 | 4.48e5 | 5.85e5 | 8.15e5 | 7.69e5 | inactive |
| CG33958 | 1 | 74479 | 70208 | 1.27e6 | 1.27e6 | inactive |
| CG33958 | 2 | 1.08e5 | 1.11e5 | 1.61e6 | 1.61e6 | inactive |
| CG33958 | 3 | 2.24e5 | 3.17e5 | 7.71e5 | 7.71e5 | inactive |
| Arp5 (Actin-related protein 5) | 1 | 48679 | 63038 | 2.99e5 | 2.19e5 | inactive |
| Arp5 (Actin-related protein 5) | 2 | 4.62e5 | 4.14e5 | 1.46e6 | 1.24e6 | inactive |
| Pglym87 (Phosphoglyceromutase 87) | 1 | 68462 | 1.23e5 | 7.18e5 | 1.10e6 | inactive |
| Pglym87 (Phosphoglyceromutase 87) | 2 | 2.81e5 | 2.33e5 | 8.20e5 | 8.79e5 | inactive |
| PIG-H (Phosphatidylinositol glycan anchor biosynthesis class H) | 1 | 1.21e5 | 1.62e5 | 3.49e6 | 2.24e6 | inactive |
| CG33700 | 1 | 5.12e5 | 4.15e5 | 1.73e6 | 8.58e5 | inactive |
| ND-51L2 (NADH dehydrogenase (ubiquinone) 51 kDa subunit-like 2) | 1 | 45959 | 61239 | 1.10e6 | 1.10e6 | inactive |
| feo (fascetto) | 1 | 3.44e5 | 2.89e5 | 2.88e6 | 3.45e6 | inactive |
| feo (fascetto) | 2 | 4.49e5 | 3.68e5 | 6.33e5 | 5.45e5 | inactive |
| lms (lateral muscles scarcer) | 1 | 52689 | 66102 | 8.13e5 | 9.18e5 | inactive |
| lms (lateral muscles scarcer) | 2 | 2.54e5 | 2.06e5 | 3.88e5 | 7.74e5 | inactive |
| lncRNA:CR43337 (long non-coding RNA:CR43337) | 1 | 1.86e5 | 1.33e5 | 3.67e5 | 3.69e5 | inactive |
| lncRNA:CR43337 (long non-coding RNA:CR43337) | 2 | 6.75e5 | 9.68e5 | 7.40e5 | 7.73e5 | inactive |

Already shown: 7 of the entries above.
| Target gene | reagent | firefly reporter light, replicate 1 | firefly reporter light, replicate 2 | Renilla control light, replicate 1 | Renilla control light, replicate 2 | activity call |
| --- | --- | --- | --- | --- | --- | --- |
| Pglym87 (Phosphoglyceromutase 87) | 1 | 68462 | 1.23e5 | 7.18e5 | 1.10e6 | inactive |
| Pglym87 (Phosphoglyceromutase 87) | 2 | 2.81e5 | 2.33e5 | 8.20e5 | 8.79e5 | inactive |
| PIG-H (Phosphatidylinositol glycan anchor biosynthesis class H) | 1 | 1.21e5 | 1.62e5 | 3.49e6 | 2.24e6 | inactive |
| CG33700 | 1 | 5.12e5 | 4.15e5 | 1.73e6 | 8.58e5 | inactive |
| ND-51L2 (NADH dehydrogenase (ubiquinone) 51 kDa subunit-like 2) | 1 | 45959 | 61239 | 1.10e6 | 1.10e6 | inactive |
| feo (fascetto) | 1 | 3.44e5 | 2.89e5 | 2.88e6 | 3.45e6 | inactive |
| feo (fascetto) | 2 | 4.49e5 | 3.68e5 | 6.33e5 | 5.45e5 | inactive |
